Data reported in paper doi:10.64898/2025.12.17.694812.
Read-outs that look alike come from different tables or passages of the source. Results are given in words; binding and its absence hold for the method and conditions named. Some entries that bind do so weakly or less than the wild type. Sequences can lack the tags named with a protein.

Experiments:
N-Flag [1] = biological target: N-Flag (UniProt Q40392); assay: native gel or EMSA
N-Flag [2] = biological target: N-Flag (UniProt Q40392); assay: native gel or EMSA; remark: listed apart in the source

- binding (N-Flag [1]): binds weakly
- binding (N-Flag [2]): binds
B1: N-Flag (receptor, UniProt Q40392 1-1144)
chain: MASSSSSSRWSYDVFLSFRGEDTRKTFTSHLYEVLNDKGIKTFQDDKRLEYGATIPGELCKAIEESQFAIVVFSENYATSRWCLNELVKIMECKTRFKQTVIPIFYDVDPSHVRNQKESFAKAFEEHETKYKDDVEGIQRWRIALNEAANLKGSCDNRDKTDADCIRQIVDQISSKLCKISLSYLQNIVGIDTHLEKIESLLEIGINGVRIMGIWGMGGVGKTTIARAIFDTLLGRMDSSYQFDGACFLKDIKENKRGMHSLQNALLSELLREKANYNNEEDGKHQMASRLRSKKVLIVLDDIDNKDHYLEYLAGDLDWFGNGSRIIITTRDKHLIEKNDIIYEVTALPDHESIQLFKQHAFGKEVPNENFEKLSLEVVNYAKGLPLALKVWGSLLHNLRLTEWKSAIEHMKNNSYSGIIDKLKISYDGLEPKQQEMFLDIACFLRGEEKDYILQILESCHIGAEYGLRILIDKSLVFISEYNQVQMHDLIQDMGKYIVNFQKDPGERSRLWLAKEVEEVMSNNTGTMAMEAIWVSSYSSTLRFSNQAVKNMKRLRVFNMGRSSTHYAIDYLPNNLRCFVCTNYPWESFPSTFELKMLVHLQLRHNSLRHLWTETKHLPSLRRIDLSWSKRLTRTPDFTGMPNLEYVNLYQCSNLEEVHHSLGCCSKVIGLYLNDCKSLKRFPCVNVESLEYLGLRSCDSLEKLPEIYGRMKPEIQIHMQGSGIRELPSSIFQYKTHVTKLLLWNMKNLVALPSSICRLKSLVSLSVSGCSKLESLPEEIGDLDNLRVFDASDTLILRPPSSIIRLNKLIILMFRGFKDGVHFEFPPVAEGLHSLEYLNLSYCNLIDGGLPEEIGSLSSLKKLDLSRNNFEHLPSSIAQLGALQSLDLKDCQRLTQLPELPPELNELHVDCHMALKFIHYLVTKRKKLHRVKLDDAHNDTMYNLFAYTMFQNISSMRHDISASDSLSLTVFTGQPYPEKIPSWFHHQGWDSSVSVNLPENWYIPDKFLGFAVCYSRSLIDTTAHLIPVCDDKMSRMTQKLALSECDTESSNYSEWDIHFFFVPFAGLWDTSKANGKTPNDYGIIRLSFSGEEKMYGLRLLYKEGPEVNALLQMRENSNEPTEHSTGIRRTQYNNRTSFYELING
